Measurements reported in PubChem BioAssay AID1224829 (NIAID, 2016)

- Screen: 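Secondary check of hits that alter LPS-induced p65 translocation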 (follow-up of hits)
- System: mouse RAW264.7 G9 macrophage reporter cells
- Reagent: single siRNA against mouse genes, 100 nM
- Timing: 2 days of siRNA knock-down, then 40 min of LPS before fixing
- Conditions: LPS (Salmonella minnesota R595) at 10 ng/ml
- Measurement: 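High-content images after 40 min LPS exposure; GFP-p65 nucleus to surrounding ring signal ratio, normalised to plate median and non-targeting control wells, expressed as z-score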
- Scale: p65 translocation z-score and gene median z-score, per vendor: higher = more nuclear NF-kappaB p65 after LPS
- Call rule: 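Active means the replicate-mean z-score lies beyond plus or minus 2, in either direction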
- Meaning of the calls: active = changed p65 translocation (either direction); inactive = no clear change
Here is a random part of about 3,800 deposited reagents. 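Calls cover raised and lowered translocation; gene median uses one vendor's three siRNAs; qiagen siRNAs acted more weakly than ambion siRNAs.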 Unmarked entries are inactive. Reagents against one gene are numbered here. Reagent sequences are not shown.

no.	target gene	reagent	siRNA vendor or control pool	p65 translocation z-score, replicate mean	p65 translocation z-score, replicate 1	p65 translocation z-score, replicate 2	gene median z-score, per vendor
1	Cd300c (CD300C molecule)	1	ambion single siRNA	-5.27 (active)	-5.63	-4.92	0.344
2	Cd300c (CD300C molecule)	2	ambion single siRNA	1.42	1.57	1.27	0.344
3	Cd300c (CD300C molecule)	3	ambion single siRNA	0.344	-0.0835	0.771	0.344
4	Cd300c (CD300C molecule)	4	qiagen single siRNA	-3.64 (active)	-4.46	-2.83	-2.83
5	Cd300c (CD300C molecule)	5	qiagen single siRNA	0.842	0.726	0.958	-2.83
6	Cd300c (CD300C molecule)	6	qiagen single siRNA	-7.74 (active)	-7.74		-2.83
7	Mtbp (MDM2 binding protein)	1	ambion single siRNA	-0.294	-0.165	-0.424	-0.294
8	Mtbp (MDM2 binding protein)	2	ambion single siRNA	0.86	1.54	0.175	-0.294
9	Mtbp (MDM2 binding protein)	3	ambion single siRNA	-1.49	-1.73	-1.25	-0.294
10	Mtbp (MDM2 binding protein)	4	qiagen single siRNA	1.44	1.51	1.37	1.36
11	Mtbp (MDM2 binding protein)	5	qiagen single siRNA	2.85 (active)	1.35	4.35	1.36
12	Mtbp (MDM2 binding protein)	6	qiagen single siRNA	-1.3	0.201	-2.8	1.36
13	Gstm3 (glutathione S-transferase, mu 3)	1	ambion single siRNA	0.468	-0.107	1.04	-0.241
14	Gstm3 (glutathione S-transferase, mu 3)	2	ambion single siRNA	-0.0266	1.22	-1.28	-0.241
15	Gstm3 (glutathione S-transferase, mu 3)	3	ambion single siRNA	-0.425	-0.474	-0.375	-0.241
16	Gstm3 (glutathione S-transferase, mu 3)	4	qiagen single siRNA	1.83	0.64	3.01	0.554
17	Gstm3 (glutathione S-transferase, mu 3)	5	qiagen single siRNA	1.43	0.469	2.4	0.554
18	Gstm3 (glutathione S-transferase, mu 3)	6	qiagen single siRNA	-3.18 (active)	-3.29	-3.08	0.554
19	Disp2 (dispatched RND transporter family member 2)	1	ambion single siRNA	-1.19	-1.54	-0.848	-2.78
20	Disp2 (dispatched RND transporter family member 2)	2	ambion single siRNA	-5.31 (active)	-5.54	-5.07	-2.78
21	Disp2 (dispatched RND transporter family member 2)	3	ambion single siRNA	-2.69 (active)	-1.36	-4.02	-2.78
22	Disp2 (dispatched RND transporter family member 2)	4	qiagen single siRNA	1.54	0.309	2.76	0.142
23	Disp2 (dispatched RND transporter family member 2)	5	qiagen single siRNA	0.889	-1.04	2.82	0.142
24	Disp2 (dispatched RND transporter family member 2)	6	qiagen single siRNA	-1.73	-0.0252	-3.43	0.142
25	Gabra5 (gamma-aminobutyric acid type A receptor subunit alpha 5)	1	ambion single siRNA	1.28	1.67	0.899	0.469
26	Gabra5 (gamma-aminobutyric acid type A receptor subunit alpha 5)	2	ambion single siRNA	0.576	1.11	0.0387	0.469
27	Gabra5 (gamma-aminobutyric acid type A receptor subunit alpha 5)	3	ambion single siRNA	-0.92	-1.56	-0.28	0.469
28	Gabra5 (gamma-aminobutyric acid type A receptor subunit alpha 5)	4	qiagen single siRNA	2.27 (active)	1.8	2.74	0.968
29	Gabra5 (gamma-aminobutyric acid type A receptor subunit alpha 5)	5	qiagen single siRNA	0.819	-0.0401	1.68	0.968
30	Gabra5 (gamma-aminobutyric acid type A receptor subunit alpha 5)	6	qiagen single siRNA	-0.278	-0.813	0.258	0.968
31	Gclm (glutamate-cysteine ligase, modifier subunit)	1	ambion single siRNA	-0.153	-0.574	0.268	-0.281
32	Gclm (glutamate-cysteine ligase, modifier subunit)	2	ambion single siRNA	0.275	0.537	0.0116	-0.281
33	Gclm (glutamate-cysteine ligase, modifier subunit)	3	ambion single siRNA	-2.08 (active)	-1.09	-3.07	-0.281
34	Gclm (glutamate-cysteine ligase, modifier subunit)	4	qiagen single siRNA				-1.45
35	Gclm (glutamate-cysteine ligase, modifier subunit)	5	qiagen single siRNA	-1.06	-0.672	-1.45	-1.45
36	Gclm (glutamate-cysteine ligase, modifier subunit)	6	qiagen single siRNA	-3.99 (active)	-3.99		-1.45
37	Rpl11 (ribosomal protein L11)	1	ambion single siRNA	-3.18 (active)	-3.43	-2.93	-1.57
38	Rpl11 (ribosomal protein L11)	2	ambion single siRNA	-1.49	-1.6	-1.39	-1.57
39	Rpl11 (ribosomal protein L11)	3	ambion single siRNA	-1.43	-1.32	-1.53	-1.57
40	Rpl11 (ribosomal protein L11)	4	qiagen single siRNA	-2.33 (active)	-0.275	-4.38	-3.46
41	Rpl11 (ribosomal protein L11)	5	qiagen single siRNA	-2.42 (active)	-1.1	-3.73	-3.46
42	Rpl11 (ribosomal protein L11)	6	qiagen single siRNA	-5.75 (active)	-3.2	-8.31	-3.46
43	Cox6b2 (cytochrome c oxidase subunit 6B2)	1	ambion single siRNA	2.05 (active)	2.12	1.98	-0.202
44	Cox6b2 (cytochrome c oxidase subunit 6B2)	2	ambion single siRNA	-2.51 (active)	-2.03	-2.99	-0.202
45	Cox6b2 (cytochrome c oxidase subunit 6B2)	3	ambion single siRNA	-0.725	1.63	-3.08	-0.202
46	Cox6b2 (cytochrome c oxidase subunit 6B2)	4	qiagen single siRNA	0.0397	-0.682	0.761	0.0738
47	Cox6b2 (cytochrome c oxidase subunit 6B2)	5	qiagen single siRNA	0.0738	0.196	-0.0488	0.0738
48	Cox6b2 (cytochrome c oxidase subunit 6B2)	6	qiagen single siRNA				0.0738
49	Hnrnpd (heterogeneous nuclear ribonucleoprotein D)	1	ambion single siRNA	1.47	-0.0287	2.98	-1.49
50	Hnrnpd (heterogeneous nuclear ribonucleoprotein D)	2	ambion single siRNA	-1.49	-2.18	-0.808	-1.49
51	Hnrnpd (heterogeneous nuclear ribonucleoprotein D)	3	ambion single siRNA	-3.7 (active)	-3.86	-3.54	-1.49
52	Hnrnpd (heterogeneous nuclear ribonucleoprotein D)	4	qiagen single siRNA	1.41	-0.118	2.94	0.337
53	Hnrnpd (heterogeneous nuclear ribonucleoprotein D)	5	qiagen single siRNA	0.337	0.0548	0.62	0.337
54	Hnrnpd (heterogeneous nuclear ribonucleoprotein D)	6	qiagen single siRNA	1.16	2.32	-0.00231	0.337

Part of the list above, reformatted.
| target gene | reagent | siRNA vendor or control pool | p65 translocation z-score, replicate mean | p65 translocation z-score, replicate 1 | p65 translocation z-score, replicate 2 | gene median z-score, per vendor |
| --- | --- | --- | --- | --- | --- | --- |
| Cox6b2 (cytochrome c oxidase subunit 6B2) | 6 | qiagen single siRNA | – | – | – | 0.0738 |
| Hnrnpd (heterogeneous nuclear ribonucleoprotein D) | 1 | ambion single siRNA | 1.47 | -0.0287 | 2.98 | -1.49 |
| Hnrnpd (heterogeneous nuclear ribonucleoprotein D) | 2 | ambion single siRNA | -1.49 | -2.18 | -0.808 | -1.49 |
| Hnrnpd (heterogeneous nuclear ribonucleoprotein D) | 3 | ambion single siRNA | -3.7 (active) | -3.86 | -3.54 | -1.49 |
| Hnrnpd (heterogeneous nuclear ribonucleoprotein D) | 4 | qiagen single siRNA | 1.41 | -0.118 | 2.94 | 0.337 |
| Hnrnpd (heterogeneous nuclear ribonucleoprotein D) | 5 | qiagen single siRNA | 0.337 | 0.0548 | 0.62 | 0.337 |
